In the test the target is novel protein PN9667 (fragment not stated) (human). Description: yeast two-hybrid.

Results are given in words; binding and its absence hold for the method and conditions named. Some entries that bind do so weakly or less than the wild type.

B1: alpha-2 catenin (bait, fragment not stated) (protein, human, UniProt P26232 1-953, looked up)
chain: MTSATSPIILKWDPKSLEIRTLTVERLLEPLVTQVTTLVNTSNKGPSGKKKGRSKKAHVLAASVEQATQNFLEKGEQIAKESQDLKEELVAAVEDVRKQGETMRIASSEFADDPCSSVKRGTMVRAARALLSAVTRLLILADMADVMRLLSHLKIVEEALEAVKNATNEQDLANRFKEFGKEMVKLNYVAARRQQELKDPHCRDEMAAARGALKKNATMLYTASQAFLRHPDVAATRANRDYVFKQVQEAIAGISNAAQATSPTDEAKGHTGIGELAAALNEFDNKIILDPMTFSEARFRPSLEERLESIISGAALMADSSCTRDDRRERIVAECNAVRQALQDLLSEYMNNTGRKEKGDPLNIAIDKMTKKTRDLRRQLRKAVMDHISDSFLETNVPLLVLIEAAKSGNEKEVKEYAQVFREHANKLVEVANLACSISNNEEGVKLVRMAATQIDSLCPQVINAALTLAARPQSKVAQDNMDVFKDQWEKQVRVLTEAVDDITSVDDFLSVSENHILEDVNKCVIALQEGDVDTLDRTAGAIRGRAARVIHIINAEMENYEAGVYTEKVLEATKLLSETVMPRFAEQVEVAIEALSANVPQPFEENEFIDASRLVYDGVRDIRKAVLMIRTPEELEDDSDFEQEDYDVRSRTSVQTEDDQLIAGQSARAIMAQLPQEEKAKIAEQVEIFHQEKSKLDAEVAKWDDSGNDIIVLAKQMCMIMMEMTDFTRGKGPLKNTSDVINAAKKIAEAGSRMDKLARAVADQCPDSACKQDLLAYLQRIALYCHQLNICSKVKAEVQNLGGELIVSGTGVQSTFTTFYEVDCDVIDGGRASQLSTHLPTCAEGAPIGSGSSDSSMLDSATSLIQAAKNLMNAVVLTVKASYVASTKYQKVYGTAAVNSPVVSWKMKAPEKKPLVKREKPEEFQTRVRRGSQKKHISPVQALSEFKAMDSF
Take B1: the binding result is “binds”.

Source of the values: patent publication US20050222029A1.
